Measured values taken from publication doi:10.1101/2025.03.27.645700.
No constants are given. Whether binding was seen depends on the method and setting. Some results given as binding are weak or reduced against the parent protein; the word gives no strength.

T1: HsInturned (human) (UniProt Q9ULD6)
T1 sequence: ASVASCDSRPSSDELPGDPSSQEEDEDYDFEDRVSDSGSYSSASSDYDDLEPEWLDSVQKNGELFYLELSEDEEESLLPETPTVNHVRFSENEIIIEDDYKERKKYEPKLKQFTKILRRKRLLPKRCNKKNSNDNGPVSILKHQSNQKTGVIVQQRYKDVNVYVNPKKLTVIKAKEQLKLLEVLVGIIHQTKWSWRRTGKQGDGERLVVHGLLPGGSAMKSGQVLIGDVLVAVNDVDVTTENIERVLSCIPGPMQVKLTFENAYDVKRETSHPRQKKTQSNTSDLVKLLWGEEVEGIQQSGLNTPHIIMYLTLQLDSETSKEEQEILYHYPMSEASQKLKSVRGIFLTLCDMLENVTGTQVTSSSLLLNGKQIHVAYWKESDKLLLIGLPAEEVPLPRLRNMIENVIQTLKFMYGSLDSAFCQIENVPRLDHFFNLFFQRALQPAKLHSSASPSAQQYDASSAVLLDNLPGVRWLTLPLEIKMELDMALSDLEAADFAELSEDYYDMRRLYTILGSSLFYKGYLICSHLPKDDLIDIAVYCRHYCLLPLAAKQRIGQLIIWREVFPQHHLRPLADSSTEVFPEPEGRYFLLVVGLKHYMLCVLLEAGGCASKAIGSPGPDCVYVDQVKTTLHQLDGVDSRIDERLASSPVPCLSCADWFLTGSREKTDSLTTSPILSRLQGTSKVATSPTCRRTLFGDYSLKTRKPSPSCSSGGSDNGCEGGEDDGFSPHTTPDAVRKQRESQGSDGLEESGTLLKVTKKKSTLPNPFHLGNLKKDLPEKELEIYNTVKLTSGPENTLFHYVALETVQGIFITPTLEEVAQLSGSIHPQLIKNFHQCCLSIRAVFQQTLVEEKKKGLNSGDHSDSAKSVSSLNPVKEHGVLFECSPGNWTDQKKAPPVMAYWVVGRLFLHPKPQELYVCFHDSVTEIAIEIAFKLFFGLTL

T2: HsFuzzy (human) (UniProt Q9BT04)
T2 sequence: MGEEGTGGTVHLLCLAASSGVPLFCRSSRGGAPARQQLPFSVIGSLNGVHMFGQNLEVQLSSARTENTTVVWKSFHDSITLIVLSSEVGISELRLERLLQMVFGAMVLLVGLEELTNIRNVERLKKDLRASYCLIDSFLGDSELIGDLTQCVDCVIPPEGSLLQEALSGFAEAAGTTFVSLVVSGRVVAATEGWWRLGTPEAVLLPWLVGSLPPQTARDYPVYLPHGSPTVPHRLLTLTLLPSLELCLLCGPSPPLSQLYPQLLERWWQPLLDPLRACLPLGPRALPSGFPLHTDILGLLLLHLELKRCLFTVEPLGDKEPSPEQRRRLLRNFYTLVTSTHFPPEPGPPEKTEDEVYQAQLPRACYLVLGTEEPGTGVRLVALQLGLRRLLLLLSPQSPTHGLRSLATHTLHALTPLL


What was measured:
[1] = biological target: T1, HsInturned (human); assay: cryo-EM structure
[2] = biological target: T2, HsFuzzy (human); assay: cryo-EM structure

Row | binding [1] | binding [2] | Binder
1 | binds |  | HsFuzzy (protein, UniProt Q9BT04 1-418) MGEEGTGGTVHLLCLAASSGVPLFCRSSRGGAPARQQLPFSVIGSLNGVHMFGQNLEVQLSSARTENTTVVWKSFHDSITLIVLSSEVGISELRLERLLQMVFGAMVLLVGLEELTNIRNVERLKKDLRASYCLIDSFLGDSELIGDLTQCVDCVIPPEGSLLQEALSGFAEAAGTTFVSLVVSGRVVAATEGWWRLGTPEAVLLPWLVGSLPPQTARDYPVYLPHGSPTVPHRLLTLTLLPSLELCLLCGPSPPLSQLYPQLLERWWQPLLDPLRACLPLGPRALPSGFPLHTDILGLLLLHLELKRCLFTVEPLGDKEPSPEQRRRLLRNFYTLVTSTHFPPEPGPPEKTEDEVYQAQLPRACYLVLGTEEPGTGVRLVALQLGLRRLLLLLSPQSPTHGLRSLATHTLHALTPLL
2 | binds | binds | HsRab23^N121I (protein, UniProt Q9ULC3 1-237) MLEEDMEVAIKMVVVGNGAVGKSSMIQRYCKGIFTKDYKKTIGVDFLERQIQVNDEDVRLMLWDTAGQEEFDAITKAYYRGAQACVLVFSTTDRESFEAVSSWREKVVAEVGDIPTVLVQIKIDLLDDSCIKNEEAEALAKRLKLRFYRTSVKEDLNVNEVFKYLAEKYLQKLKQQIAEDPELTHSSSNKIGVFNTSGGSHSGQNSGTLNGGDVINLRPNKQRTKKNRNPFSSCSIP
